Results are given in words; binding and its absence hold for the method and conditions named. In cells and extracts the contact can be indirect. Some binding calls cover weakened binding; strength is not graded here.
Target: T1, desmoglein 3 (human (endogenous in HaCaT)) (UniProt P32926)
T1 sequence: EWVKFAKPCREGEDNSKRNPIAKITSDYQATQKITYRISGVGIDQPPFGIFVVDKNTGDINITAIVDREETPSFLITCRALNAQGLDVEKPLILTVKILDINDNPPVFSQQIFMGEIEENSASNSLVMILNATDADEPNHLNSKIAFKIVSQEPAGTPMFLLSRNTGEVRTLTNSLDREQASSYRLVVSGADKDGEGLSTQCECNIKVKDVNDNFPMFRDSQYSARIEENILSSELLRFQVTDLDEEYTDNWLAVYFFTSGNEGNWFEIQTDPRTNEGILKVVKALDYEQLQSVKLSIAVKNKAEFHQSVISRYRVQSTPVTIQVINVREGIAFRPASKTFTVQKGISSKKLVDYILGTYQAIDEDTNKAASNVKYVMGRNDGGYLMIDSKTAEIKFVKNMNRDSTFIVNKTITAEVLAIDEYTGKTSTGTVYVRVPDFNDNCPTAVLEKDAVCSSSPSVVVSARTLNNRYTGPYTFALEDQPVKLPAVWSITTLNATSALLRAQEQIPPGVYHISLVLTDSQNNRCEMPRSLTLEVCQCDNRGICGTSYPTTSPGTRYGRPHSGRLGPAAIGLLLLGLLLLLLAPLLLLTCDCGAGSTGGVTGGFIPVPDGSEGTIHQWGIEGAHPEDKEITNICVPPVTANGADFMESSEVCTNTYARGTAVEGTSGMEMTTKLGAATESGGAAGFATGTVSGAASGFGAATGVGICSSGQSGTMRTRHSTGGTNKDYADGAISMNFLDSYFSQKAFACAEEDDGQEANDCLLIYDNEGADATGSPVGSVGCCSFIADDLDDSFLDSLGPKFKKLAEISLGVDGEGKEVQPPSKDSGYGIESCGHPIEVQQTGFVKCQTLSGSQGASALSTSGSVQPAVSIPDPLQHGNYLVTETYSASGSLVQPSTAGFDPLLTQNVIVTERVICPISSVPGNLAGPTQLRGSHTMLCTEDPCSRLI
Assay: co-IP

The chains behind the UniProt entries cited, without tags or fusion partners. Residues count along the entry.
UniProt Q14126, residues 50-1118: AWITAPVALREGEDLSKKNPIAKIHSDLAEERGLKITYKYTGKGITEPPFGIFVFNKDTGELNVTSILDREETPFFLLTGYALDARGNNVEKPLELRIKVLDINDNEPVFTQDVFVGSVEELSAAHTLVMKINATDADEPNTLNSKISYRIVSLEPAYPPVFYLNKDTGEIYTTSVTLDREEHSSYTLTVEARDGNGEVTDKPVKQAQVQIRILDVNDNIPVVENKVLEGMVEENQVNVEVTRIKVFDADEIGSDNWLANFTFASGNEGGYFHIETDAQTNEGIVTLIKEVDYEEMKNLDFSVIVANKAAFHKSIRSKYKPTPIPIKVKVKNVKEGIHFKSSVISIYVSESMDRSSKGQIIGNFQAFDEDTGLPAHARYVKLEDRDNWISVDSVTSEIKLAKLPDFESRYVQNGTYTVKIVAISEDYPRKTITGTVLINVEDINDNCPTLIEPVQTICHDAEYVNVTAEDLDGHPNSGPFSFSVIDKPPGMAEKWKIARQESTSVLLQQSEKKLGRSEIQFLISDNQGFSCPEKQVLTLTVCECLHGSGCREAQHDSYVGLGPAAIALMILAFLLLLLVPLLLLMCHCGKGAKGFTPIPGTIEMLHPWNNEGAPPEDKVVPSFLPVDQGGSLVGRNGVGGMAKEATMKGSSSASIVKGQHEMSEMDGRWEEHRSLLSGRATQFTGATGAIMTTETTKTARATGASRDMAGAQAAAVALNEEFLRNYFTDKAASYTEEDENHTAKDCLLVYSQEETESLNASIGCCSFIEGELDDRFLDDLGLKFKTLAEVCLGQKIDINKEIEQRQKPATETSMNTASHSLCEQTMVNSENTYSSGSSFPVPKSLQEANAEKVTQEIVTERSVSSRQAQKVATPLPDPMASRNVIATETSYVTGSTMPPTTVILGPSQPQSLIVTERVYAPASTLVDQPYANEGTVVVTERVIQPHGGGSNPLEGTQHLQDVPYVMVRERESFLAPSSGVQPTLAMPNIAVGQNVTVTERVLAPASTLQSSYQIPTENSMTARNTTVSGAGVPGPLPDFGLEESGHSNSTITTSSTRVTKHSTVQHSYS

- binding: binds
Substance: desmoglein 2 (from UniProt Q14126 50-1118)
